Construct, isoform or probe ends are uncertain for at least one entry. Results from cells or extracts need not show a direct contact. Protein sequences can lack the tags named with them.
Target: T1, MYB28 (AtMYB28) (Arabidopsis thaliana) (UniProt Q9SPG2)
T1 sequence (looked up, limits assumed): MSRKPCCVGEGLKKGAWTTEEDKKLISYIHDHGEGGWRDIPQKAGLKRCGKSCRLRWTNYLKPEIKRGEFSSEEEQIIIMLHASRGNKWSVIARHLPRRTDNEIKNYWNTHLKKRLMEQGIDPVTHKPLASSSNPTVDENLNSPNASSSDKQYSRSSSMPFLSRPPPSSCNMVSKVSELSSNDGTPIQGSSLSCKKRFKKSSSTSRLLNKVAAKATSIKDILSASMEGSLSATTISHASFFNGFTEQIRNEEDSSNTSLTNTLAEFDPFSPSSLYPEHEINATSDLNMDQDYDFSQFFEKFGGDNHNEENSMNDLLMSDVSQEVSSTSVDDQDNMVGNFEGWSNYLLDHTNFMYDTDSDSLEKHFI
Experiment: EMSA
Settings: Odyssey Infrared EMSA kit (LI-COR), 6% DNA retardation gel, TBE, run at 4 °C; probes annealed in TE; protein extracted in 20 mM sodium phosphate pH 7.4, 0.5 M NaCl; protein in a lysate after overexpression; protein details: C-terminal GST (pDEST24); label: 5' DY-682 on forward strand

**Q.** Does “TGAGTTTCGAACACCTAATCGCGACAACAACCTTATAGCTTCTCTCTCTC (double strand) [SESA4_MYB labeled probe (At2S4 promoter)]” bind?
**A.** binds
